Measurements: patent publication US20220002384A1
Changes are numbered by the printed parent chain. Results are given in words; binding and its absence hold for the method and conditions named. Some entries that bind do so weakly or less than the wild type. For some assays here: Sequences can lack the tags named with a protein. One block for each binder: values may come before it.

The chains behind the UniProt entries cited, without tags or fusion partners. Where a name states a change or a piece, a line headed by the entry shows the natural chain unless it says otherwise. Residues count along the entry.
UniProt P30530, residues 26-894: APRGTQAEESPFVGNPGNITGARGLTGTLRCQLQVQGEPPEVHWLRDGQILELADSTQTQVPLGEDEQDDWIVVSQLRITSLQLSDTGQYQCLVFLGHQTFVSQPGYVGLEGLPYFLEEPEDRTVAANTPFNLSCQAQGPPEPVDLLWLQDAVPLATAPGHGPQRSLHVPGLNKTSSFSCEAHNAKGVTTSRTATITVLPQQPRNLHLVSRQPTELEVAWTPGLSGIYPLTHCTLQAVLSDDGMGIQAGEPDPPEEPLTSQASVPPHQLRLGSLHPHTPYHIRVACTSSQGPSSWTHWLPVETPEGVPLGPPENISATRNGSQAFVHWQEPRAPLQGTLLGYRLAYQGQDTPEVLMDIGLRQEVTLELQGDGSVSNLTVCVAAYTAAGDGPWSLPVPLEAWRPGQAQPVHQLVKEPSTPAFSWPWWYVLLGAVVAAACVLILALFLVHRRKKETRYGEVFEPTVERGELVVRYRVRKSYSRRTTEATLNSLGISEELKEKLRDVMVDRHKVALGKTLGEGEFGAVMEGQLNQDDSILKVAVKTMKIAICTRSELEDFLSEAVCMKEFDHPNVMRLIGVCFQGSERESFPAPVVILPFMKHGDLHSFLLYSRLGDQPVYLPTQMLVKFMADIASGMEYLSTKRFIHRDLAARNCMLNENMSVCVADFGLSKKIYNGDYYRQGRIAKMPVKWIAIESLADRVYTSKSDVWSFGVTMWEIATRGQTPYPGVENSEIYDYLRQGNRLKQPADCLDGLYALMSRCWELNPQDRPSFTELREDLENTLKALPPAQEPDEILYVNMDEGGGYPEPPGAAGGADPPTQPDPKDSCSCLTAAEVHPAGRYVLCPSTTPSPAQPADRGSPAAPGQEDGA
UniProt Q02223, residues 1-54: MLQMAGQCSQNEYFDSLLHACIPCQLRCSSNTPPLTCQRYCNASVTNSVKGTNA

How the values were obtained:
[1] = target: AXL receptor on MDA-MB-231 cells (UniProt P30530); assay: titration 1:4 from 500 nM on MDA-MB-231 and MDA-MB-231 KO cell lines
[2] = target: AXL receptor on MDA-MB-231 cells (UniProt P30530); assay: FACS on MDA-MB-231 cells against AXL KO MDA-MB-231 cells
[3] = target: BCMA-Fc Chimera (R&D Systems) (UniProt Q02223); assay: phage and yeast display selection on BCMA-Fc; Octet BLI on BCMA-Fc on Protein A tips (values not given)

B2: AXL #44-CD3 FN3 domain-scFv fusion (protein)
chain: NVSPPRRARVTDATETTITIRWEGRGVIGFQVDAVPANGQTPIQRTIKPDVRSYTITGLQPGTDYKIYLYTLPNIGTGHFSSSPVVIDASTGGGGSELVVTQEPSLTVSPGGTVTLTCRSSTGAVTTSNYANWVQQKPGQAPRGLIGGTNKRAPGTPARFSGSLLGGKAALTLSGVQPEDEAEYYCALWYSNLWVFGGGTKLTVLGGGGSGGGGSGGGGSEVQLLESGGGLVQPGGSLKLSCAASGFTFNTYAMNWVRQAPGKGLEWVARIRSKYNNYATYYADSVKDRFTISRDDSKNTAYLQMNNLKTEDTAVYYCVRHGNFGNSYVSWFAYWGQGTLVTVSSHHHHHH
binding [1]: binds

B4: AXL #44 (designed binder)
chain: NVSPPRRARVTDATETTITIRWEGRGVIGFQVDAVPANGQTPIQRTIKPDVRSYTITGLQPGTDYKIYLYTLPNIGTGHFSSSPVVIDAST
binding [2]: binds

B8: AXL #53 (designed binder)
chain: NVSPPRRARVTDATETTITISWEGSPSTFIGFQVDAVPANGQTPIQRTIKPDVRSYTITGLQPGTDYKIYLYTLPDFGRGHFTSSPVVIDAST
binding [2]: binds

Now from value to binder:

binding [1]: binds
B1: AXL #56-CD3 FN3 domain-scFv fusion (protein)
chain: NVSPPRRARVTDATETTITISWRVSPSTVVGLQVDAVPANGQTPIQRTIKPDVRSYTITGLQPGTDYKIYLYTLNVIGGSAHASSPVVIDASTGGGGSELVVTQEPSLTVSPGGTVTLTCRSSTGAVTTSNYANWVQQKPGQAPRGLIGGTNKRAPGTPARFSGSLLGGKAALTLSGVQPEDEAEYYCALWYSNLWVFGGGTKLTVLGGGGSGGGGSGGGGSEVQLLESGGGLVQPGGSLKLSCAASGFTFNTYAMNWVRQAPGKGLEWVARIRSKYNNYATYYADSVKDRFTISRDDSKNTAYLQMNNLKTEDTAVYYCVRHGNFGNSYVSWFAYWGQGTLVTVSSHHHHHH

binding [1]: binds
B3: AXL #54-CD3 FN3 domain-scFv fusion (protein)
chain: B2 chain with N74D, I75F, T77R, S81T

binding [2]: binds
B5: AXL #54 (designed binder)
chain: B4 chain with N74D, I75F, T77R, S81T

binding [3]: binds
B6: exemplary BCMA-binding FN3 domain (designed binder)
chain: NVSPPRRARVTDATETTITIPWALAGSPVVRFQVDAVPANGQTPIQRTIQPSKRGYTITGLQPGTDYKIYLYTLNGPVVIDAST

binding [2]: binds
B7: AXL #56 (designed binder)
chain: NVSPPRRARVTDATETTITISWRVSPSTVVGLQVDAVPANGQTPIQRTIKPDVRSYTITGLQPGTDYKIYLYTLNVIGGSAHASSPVVIDAST
